PubChem BioAssay AID1259331 – Drosophila RNAi Screening Center | 2017
Shown is a random part of about 3,100 reagents tested. In the full data, 126 (4.1%) are marked active. 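Calls are per reagent; zinc was so toxic that few knock-downs lowered ATP further, so most hits raise ATP.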 Raw values vary from plate to plate and are shown uncorrected. A number with no mark means an inactive call. A plus sign joins genes that one reagent is predicted to hit. Not given: the amount of reagent.

- Screen: 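Fly transmembrane-protein genes that affect zinc toxicity in cultured cells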 (primary screen)
- Cell system: Drosophila S2R+ cells
- Reagent: long dsRNA against Drosophila genes
- Duration: 5 days (4 days knock-down, then 1 day zinc)
- Conditions: zinc chloride at 15 mM final level for 1 day
- Detection: 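Total cellular ATP measured by luciferase luminescence as a viability proxy, turned into Z scores from three plate copies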
- Direction: mean Z score: higher = more ATP than other wells, better survival under zinc; ATP luminescence: higher = more ATP, more viable cells
- Active means: 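Hit when the absolute Z score is greater than 1.5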
- Calls: active = hit, ATP up or down; inactive = not a hit

The opening 3 entries, to show the layout:
VAChT + ChAT [DRSC13312]
- mean Z score: -0.217
- ATP luminescence, replicate 1: 35736
- ATP luminescence, replicate 2: 56291

laza [DRSC23330]
- mean Z score: 0.00746
- ATP luminescence, replicate 1: 47069
- ATP luminescence, replicate 2: 48937

laza [DRSC29129]
- mean Z score: 0.262
- ATP luminescence, replicate 1: 61729
- ATP luminescence, replicate 2: 69213

Main list, repeating the preview:
VAChT + ChAT [DRSC13312]
- mean Z score: -0.217
- ATP luminescence, replicate 1: 35736
- ATP luminescence, replicate 2: 56291

laza [DRSC23330]
- mean Z score: 0.00746
- ATP luminescence, replicate 1: 47069
- ATP luminescence, replicate 2: 48937

laza [DRSC29129]
- mean Z score: 0.262
- ATP luminescence, replicate 1: 61729
- ATP luminescence, replicate 2: 69213

CG3285 [DRSC00589]
- mean Z score: -0.198
- ATP luminescence, replicate 1: 49795
- ATP luminescence, replicate 2: 57278

Tsp96F [DRSC14147]
- mean Z score: -0.538
- ATP luminescence, replicate 1: 42210
- ATP luminescence, replicate 2: 37810

Tsp96F [DRSC39893]
- mean Z score: -0.642
- ATP luminescence, replicate 1: 44651
- ATP luminescence, replicate 2: 52332

CG1275 [DRSC08294]
- mean Z score: -0.3
- ATP luminescence, replicate 1: 25502
- ATP luminescence, replicate 2: 31759

brv3 [DRSC25544]
- mean Z score: -0.0143
- ATP luminescence, replicate 1: 58161
- ATP luminescence, replicate 2: 55110

Tmtc2 [DRSC24987]
- mean Z score: 0.218
- ATP luminescence, replicate 1: 55951
- ATP luminescence, replicate 2: 73717

CG32669 [DRSC18864]
- mean Z score: 0.0476
- ATP luminescence, replicate 1: 74445
- ATP luminescence, replicate 2: 74792

Inx6 [DRSC20579]
- mean Z score: -0.357
- ATP luminescence, replicate 1: 35496
- ATP luminescence, replicate 2: 45622

Inx6 [DRSC26299]
- mean Z score: -0.189
- ATP luminescence, replicate 1: 52879
- ATP luminescence, replicate 2: 53430

CG14694 [DRSC14917]
- mean Z score: -0.126
- ATP luminescence, replicate 1: 36850
- ATP luminescence, replicate 2: 53756

CG30344 [DRSC26387]
- mean Z score: 0.106
- ATP luminescence, replicate 1: 57442
- ATP luminescence, replicate 2: 61112

MRP [DRSC02942]
- mean Z score: -0.45
- ATP luminescence, replicate 1: 47840
- ATP luminescence, replicate 2: 52013

MRP [DRSC39503]
- mean Z score: -0.161
- ATP luminescence, replicate 1: 47566
- ATP luminescence, replicate 2: 46417

RyR [DRSC07543]
- mean Z score: -0.156
- ATP luminescence, replicate 1: 1.05e5
- ATP luminescence, replicate 2: 70064

RyR [DRSC39632]
- mean Z score: 0.097
- ATP luminescence, replicate 1: 65142
- ATP luminescence, replicate 2: 58986

CG13101 [DRSC02201]
- mean Z score: 0.314
- ATP luminescence, replicate 1: 58608
- ATP luminescence, replicate 2: 62827

CG13101 [DRSC39475]
- mean Z score: 0.153
- ATP luminescence, replicate 1: 54219
- ATP luminescence, replicate 2: 55076

TrpA1 [DRSC10544]
- mean Z score: 1.05
- ATP luminescence, replicate 1: 94593
- ATP luminescence, replicate 2: 83168

Oamb [DRSC13433]
- mean Z score: 0.326
- ATP luminescence, replicate 1: 1.16e5
- ATP luminescence, replicate 2: 66060

Oamb [DRSC15120]
- mean Z score: 2.95 (active)
- ATP luminescence, replicate 1: 75814
- ATP luminescence, replicate 2: 83855

Oamb [DRSC16763]
- mean Z score: 0.43
- ATP luminescence, replicate 1: 35307
- ATP luminescence, replicate 2: 63273
